# In PubChem BioAssay AID504467 (National Center for Advancing Translational Sciences (NCATS), 2011):
# The whole screen tested about 330,000 compounds, of which about 7,700 (2.3%) were called active. The inconclusive results got no clear call from the source; some entries with a clear call stand among them for comparison. The call rests on the fitted dose curve; in most records, active means well fitted inhibition curve with a large enough effect; inconclusive means small, poorly fitted or top-dose-only effect, or effect the other way; inactive means flat fitted curve, though single readings scatter. Potencies beside an inconclusive call are fits to weak or partial responses and may not hold up.
# Test: qHTS screen for small molecules that inhibit ELG1-dependent DNA repair in human embryonic kidney (HEK293T) cells expressing luciferase-tagged ELG1; further: nearly all actives have a fitted effect of over 55% in size
# Conditions: HEK293T ELG1-luciferase reporter, luminescence, 16 h, DNA damage induced by 5-fluorouridine; series mostly up to 46.1 µM
# Method in brief: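 Luminescence from the luciferase reporter, measured 30 min after ONE-Glo reagent at room temperature, was the read-out. Beforehand, 2,000 cells per well were exposed for 16 hr at 37 °C to 5-fluorouridine together with compound or vehicle.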
# Potency means the concentration at half of the fitted maximal effect.
row,Compound,Potency
1,O=C(Oc1ccc(Cl)c2ccccc12)N1CCCCC1,"inconclusive: 20.6 µM [activator, single point]"
2,O=c1ccc2cc(O[C@@H]3O[C@@H](CO)[C@H](O)[C@@H](O)[C@@H]3O)c(O)cc2o1,inactive
3,Brc1ccc(Oc2ccc(Br)cc2Br)c(Br)c1,"inconclusive: 20.6 µM [activator, partial curve]"
4,Cc1cccc(N2CCN(C(=O)CCNS(=O)(=O)c3ccc4c(c3)oc(=O)n4C)CC2)c1C,"inconclusive: 25.9 µM [inhibitor, partial curve, poor fit]"
5,CN(C)c1ccc(CCN2CCOCC2)cc1,"inconclusive: 15.8 µM [activator, partial curve]"
6,COC(=O)C1=C(c2ccc(F)cc2OCc2ccccc2)C[C@@H]2CC[C@H]1N2C(=O)NCc1cc(C)oc1C(F)(F)F,"inconclusive: 4.61 µM [inhibitor, partial curve, poor fit]"
7,CC(=O)N1N=C2C3CCN(CC3)C2C1c1ccc(Br)cc1 (stereo not given),inactive
8,Cc1ccccc1OCCN=Cc1c(O)n(C)c(=O)n(C)c1=O,"inconclusive: 35.5 µM [inhibitor, single point]"
9,Cc1ccnc(NS(=O)(=O)c2ccc(N=Cc3c(O)n(C)c(=O)n(C)c3=O)cc2)n1,inactive
10,COc1ccc(CN2CCN(C(=O)Cn3c(=O)oc4cc(Cl)ccc43)CC2)c(OC)c1OC,"inconclusive: 23.1 µM [inhibitor, partial curve]"
11,COc1cccc(NP(=O)(Oc2ccccc2)Oc2ccccc2)c1,"inconclusive: 7.31 µM [inhibitor, partial curve]"
12,CN(C)C(=S)SSC(=S)N(C)C,"inconclusive: 29.1 µM [activator, single point]"
13,Cc1ccc(C)c(Cn2c(C(=O)O)c(C=O)c3ccccc32)c1,"inconclusive: 0.651 µM [inhibitor, single point]"
14,COC(=O)C1=C(c2cccc(C#N)c2)C[C@@H]2CC[C@H]1N2C(=O)N1CCC(O)CC1,"inconclusive: 0.73 µM [inhibitor, single point]"
15,O=C(c1cc(-c2ccncc2)nc2ccccc12)N1CCC2(CC1)OCCO2,inactive
16,CCN1C(=O)C(=Cc2ccc(N3CCOCC3)o2)C(=O)N(CC)C1=S,"inconclusive: 29.1 µM [activator, single point]"
17,Nc1cc(Cl)cc(Cl)c1,inactive
18,COc1ccc(CCNC2CCCCC2)cc1OC,inactive
19,CCc1ccc(N2C(=O)NC(=O)/C(=C\c3cccn3CCOc3ccc(C(C)C)cc3)C2=O)cc1,"inconclusive: 7.31 µM [activator, partial curve]"
20,CCC(=Nc1ccc(OC)cc1OC)c1c(O)n(C)c(=O)n(C)c1=O,"inconclusive: 11.6 µM [inhibitor, partial curve, poor fit]"
21,CC(C)C(=O)N1CCC(CN=Cc2c(O)n(C3CCCCC3)c(=O)n(C3CCCCC3)c2=O)CC1,"inconclusive: 25.9 µM [inhibitor, single point]"
22,Cn1c(=O)c2c(nc(N/N=C/c3c(O)n(C4CCCCC4)c(=S)[nH]c3=O)n2C)n(C)c1=O,"inconclusive: 1.16 µM [inhibitor, full curve]"
23,Cc1cccc(CN2CCCC(C(=O)c3ccc4c(c3)OCO4)C2)n1 (stereo not given),inactive
24,CCN1CCN(Cc2ccc(C)cc2)CC1,inactive

# 6 entries from above, reformatted.
row	Compound	Potency
11	COc1cccc(NP(=O)(Oc2ccccc2)Oc2ccccc2)c1	inconclusive: 7.31 µM [inhibitor, partial curve]
12	CN(C)C(=S)SSC(=S)N(C)C	inconclusive: 29.1 µM [activator, single point]
13	Cc1ccc(C)c(Cn2c(C(=O)O)c(C=O)c3ccccc32)c1	inconclusive: 0.651 µM [inhibitor, single point]
14	COC(=O)C1=C(c2cccc(C#N)c2)C[C@@H]2CC[C@H]1N2C(=O)N1CCC(O)CC1	inconclusive: 0.73 µM [inhibitor, single point]
15	O=C(c1cc(-c2ccncc2)nc2ccccc12)N1CCC2(CC1)OCCO2	inactive
16	CCN1C(=O)C(=Cc2ccc(N3CCOCC3)o2)C(=O)N(CC)C1=S	inconclusive: 29.1 µM [activator, single point]

# Next part

row,Compound,Potency
1,O=C(N/N=C/c1cccnc1)c1ccc(NC(=O)C(c2ccccc2)c2ccccc2)cc1,"inconclusive: 25.9 µM [inhibitor, single point]"
2,Cc1ccc(NC(=O)c2cn(CCC#N)nc2-c2ccc3c(c2)OCCO3)c([N+](=O)[O-])c1,active: 18.4 µM
3,CCCCn1c(=O)c(C(=O)Nc2ncccc2C)c(O)c2ccccc21,inactive
4,CCS(=O)(=O)Nc1ccc(C2=NN(C(=O)c3ccco3)C(c3ccc(Cl)o3)C2)cc1 (stereo not given),"inconclusive: 25.9 µM [inhibitor, single point]"
5,Cc1ccc(N2C(=O)NC(=O)/C(=C/C=C/c3ccco3)C2=O)cc1,"inconclusive: 29.1 µM [inhibitor, single point]"
6,CC1CCC/C=C/C2CC(O)CC2C(O)/C=C/C(=O)O1 (stereo not given),active: 0.651 µM
7,COC(=O)C1=C(c2c(C)noc2C)C[C@@H]2CC[C@H]1N2C(=O)NC1CCCCC1,inactive
8,CN(C)C(=O)Oc1ccc(-c2cn3cc(Cl)ccc3n2)cc1,"inconclusive: 1.84 µM [activator, full curve]"
9,CCC(=NCc1ccc2c(c1)OCO2)c1c(O)n(C)c(=O)n(C)c1=O,active: 14.6 µM
10,CN1C(=O)/C(=C/c2ccc(N3CCCCCC3)o2)C(=O)NC1=S,"inconclusive: 6.51 µM [activator, partial curve]"
11,CCOc1ccc(C(=O)OC2CC3CCC(C2)N3C)cc1 (stereo not given),inactive
12,Cc1c2cnn(CC(=O)N3CCC4(CC3)OCCO4)c(=O)c2c(C)n1Cc1ccc(F)cc1,"inconclusive: 18.4 µM [inhibitor, partial curve]"
13,CC/C(=N\Nc1cccc2ccccc12)c1c(O)[nH]c(=O)[nH]c1=O,"inconclusive: 16.4 µM [activator, single point]"
14,O=C(c1ccccc1)N1C(=O)C(c2ccccc2)Oc2ccccc21 (stereo not given),"inconclusive: 16.4 µM [inhibitor, partial curve, poor fit]"
15,CCCCNC(=O)c1c(N)n(Cc2ccc3c(c2)OCO3)c2nc3ccccc3nc12,inactive
16,O=C1CC(=O)N(c2ccc(Cl)cc2)C(=O)N1,inactive
17,C=CCS(=O)(=O)N1CCC(CCOc2ccccc2)(C(=O)OCC)CC1,"inconclusive: 18.3 µM [inhibitor, partial curve, poor fit]"
18,CC(C)CCNc1nnnc2c1sc1nc(N3CCOCC3)c3c(c12)CC(C)(C)SC3,"inconclusive: 5.17 µM [inhibitor, single point]"
19,C=CCn1c(O)c(C(CC)=NCc2cccnc2)c(=O)[nH]c1=O,"inconclusive: 23.1 µM [activator, single point]"
20,Cc1ccccc1NC(=O)CCl,inactive
21,COc1cc2c(c(OC)c1OC)-c1ccc(O)c(=O)cc1[C@@H](NC(C)=O)CC2,"inconclusive: 29.1 µM [activator, single point]"
22,CC(C)OP(=O)(OC(C)C)C(Nc1ccccc1)c1ccc2c(c1)OCO2 (stereo not given),"inconclusive: 18.4 µM [inhibitor, single point]"
23,C=C[C@H](Cc1ccccc1)N(Cc1ccccc1)S(=O)(=O)N(Cc1ccccc1)[C@H](C=C)Cc1ccccc1,"inconclusive: 32.6 µM [activator, single point]"
24,O=c1c2ccccc2[nH]c(=S)n1-c1ccc2c(c1)OCO2,inactive

row,Compound,Potency
1,COCCNC(=O)Cn1cc(C=C2C(=O)NC(=O)NC2=O)c2ccccc21,"inconclusive: 25.9 µM [inhibitor, partial curve]"
2,C=CCN=C(SCC(=O)c1ccc(Cl)cc1)c1c(O)n(C)c(=O)n(C)c1=O,"inconclusive: 29.1 µM [activator, single point]"
3,O=c1[nH]c(=O)n(CCC2=CCCCC2)c(O)c1C=Nc1cccc(F)c1,"inconclusive: 4.61 µM [activator, partial curve, poor fit]"
4,O=C(Nc1ccc2nc(-c3cccs3)c(-c3cccs3)nc2c1)NC1CC1,"inconclusive: 18.4 µM [inhibitor, single point]"
5,COc1ccc(S(=O)(=O)N(C)C[C@H]2Oc3c(NC(=O)NC4CCCCC4)cccc3C(=O)N([C@H](C)CO)C[C@@H]2C)cc1,"inconclusive: 20.6 µM [inhibitor, single point]"
6,Cc1c(C=C2C(=O)NC(=O)NC2=O)c(=O)n(-c2ccccc2)n1C,inactive
7,CCOc1cc(CN2CCN(C(=O)Cc3ccccc3)CC2)ccc1OC,"inconclusive: 32.6 µM [inhibitor, partial curve, poor fit]"
8,O=C1NC(=S)NC(=O)C1=Cc1cccn1-c1ccc(O)cc1,"inconclusive: 29.1 µM [activator, single point]"
9,C#CCN[C@H](C)Cc1ccccc1,inactive
10,NCc1cc(=O)[nH]o1,inactive
11,O=C(c1cc(C(=O)NCc2ccccc2)c(=O)n(Cc2ccccc2)c1)c1cc(Br)ccc1O,"inconclusive: 29.1 µM [inhibitor, single point]"
12,CCS(=O)(=O)N1CCCC(C(=O)N2CCC3(CC2)OCCO3)C1 (stereo not given),"inconclusive: 32.6 µM [activator, partial curve, poor fit]"
13,Cc1nn(C(C)(C)C)c(C)c1/C=N/OC(=O)Nc1ccc(Cl)cc1,"inconclusive: 0.116 µM [activator, partial curve]"
14,CC1CCc2c(sc3nc(CSc4n[nH]c(N)n4)[nH]c(=O)c23)C1 (stereo not given),"inconclusive: 20.6 µM [activator, single point]"
15,O=Cc1cn(Cc2ccc(Br)cc2)c2ccccc12,inactive
16,CC1CN=C(NCc2ccccc2Cl)S1 (stereo not given),"inconclusive: 0.259 µM [inhibitor, single point]"
17,Cc1nc2c(=O)n(C)c(=O)nc-2n(C)n1,active: 1.84 µM
18,CCN(CC)C(=O)c1ccc(NC(=O)CCCSc2ccccc2)cc1,inactive
19,CCCCn1c(=O)c(C(=O)NCc2ccncc2)c(O)c2ccccc21,"inconclusive: 29.1 µM [inhibitor, single point]"
20,Brc1ccc(CN2CCNCC2)s1,"inconclusive: 32.6 µM [activator, partial curve, poor fit]"
21,Cc1nn(Cc2ccccc2)c(C)c1C(=O)NCc1ccccc1,inactive
22,C#CCOCCOCCOCCNc1nc(N2CCN(C(=O)CCCCCCCCCCNC(=O)[C@H]([C@@H](C)CC)n3cc(CCCCN=C(N)N)nn3)CC2)nc(N2CCN(C(=O)CCCCCCCCCCNC(=O)[C@H](CO)n3cc(CCCCCN)nn3)CC2)n1,"inconclusive: 28.2 µM [inhibitor, single point]"
